Record: PubChem BioAssay AID743458 (Peter MacCallum Cancer Centre, 2014)
Shown is a random part of about 1,800 reagents tested. Over the whole deposit, 732 (41%) are marked active. 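Calls are per siRNA reagent; a gene was deemed confirmed only if most of its four siRNAs scored.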 A number with no mark means an inactive call. The numbers tell different reagents against one gene apart.

- Aim: 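Find knock-downs that make vorinostat-resistant colon cancer cells sensitive again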 (follow-up of hits)
- Cells: human HCT116-VR colon cancer cells made resistant to vorinostat
- Reagent: single siRNA or pool against human genes, 25 nM per single siRNA
- Time to read-out: about 72 h after transfection, including 24 h of drug
- Treatment: vorinostat, 2.5 µM final, for 24 h
- Measured: 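Cell viability by fluorescence and apoptosis by caspase 3/7 luminescence under vorinostat, background-corrected, averaged across two plate copies and given as fold change versus mock transfection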
- Reading the numbers: viability relative to mock: higher = more living cells than mock; caspase activity relative to mock: higher = more apoptosis than mock
- Hit rule: 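Active means a reduced-viability or caspase-activation class, anything else inactive; classes could only be given to wells that looked healthy when left untreated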

| Gene | reagent | viability relative to mock | caspase activity relative to mock | viability hit class | caspase hit class |
| --- | --- | --- | --- | --- | --- |
| LRP3 (LDL receptor related protein 3) | 1 | 0.62 (active) | 4.03 | no change | caspase activation |
| LRP3 (LDL receptor related protein 3) | 2 | 0.86 (active) | 3.26 | no change | caspase activation |
| LRP3 (LDL receptor related protein 3) | 3 | 0.59 (active) | 4.96 | no change | caspase activation |
| LRP3 (LDL receptor related protein 3) | 4 | 0.49 (active) | 2.45 | reduced viability | no change |
| RPS28 (ribosomal protein S28) | 1 | 0.37 (active) | 0.58 | reduced viability | no change |
| RPS28 (ribosomal protein S28) | 2 | 0.3 | 0.58 | no change | no change |
| RPS28 (ribosomal protein S28) | 3 | 0.28 (active) | 0.52 | reduced viability | no change |
| RPS28 (ribosomal protein S28) | 4 | 0.3 (active) | 1.54 | reduced viability | no change |
| LSM14A (LSM14A mRNA processing body assembly factor) | 1 | 0.98 | 2.21 | no change | no change |
| LSM14A (LSM14A mRNA processing body assembly factor) | 2 | 0.36 (active) | 4.65 | reduced viability | caspase activation |
| LSM14A (LSM14A mRNA processing body assembly factor) | 3 | 0.86 | 0.95 | no change | no change |
| LSM14A (LSM14A mRNA processing body assembly factor) | 4 | 0.94 | 0.95 | no change | no change |
| LSM14A (LSM14A mRNA processing body assembly factor) | 5 | 0.81 (active) | 3.84 | no change | caspase activation |
| EIF2S1 (eukaryotic translation initiation factor 2 subunit alpha) | 1 | 0.89 | 1.02 | no change | no change |
| EIF2S1 (eukaryotic translation initiation factor 2 subunit alpha) | 2 | 0.5 | 2.5 | no change | no change |
| EIF2S1 (eukaryotic translation initiation factor 2 subunit alpha) | 3 | 0.37 (active) | 1.54 | reduced viability | no change |
| EIF2S1 (eukaryotic translation initiation factor 2 subunit alpha) | 4 | 0.38 (active) | 0.97 | reduced viability | no change |
| TFAP2D (transcription factor AP-2 delta) | 1 | 0.71 (active) | 2.8 | no change | caspase activation |
| TFAP2D (transcription factor AP-2 delta) | 2 | 0.7 (active) | 4.08 | no change | caspase activation |
| TFAP2D (transcription factor AP-2 delta) | 3 | 0.79 | 1.27 | no change | no change |
| TFAP2D (transcription factor AP-2 delta) | 4 | 0.64 (active) | 3.68 | no change | caspase activation |
| RBBP8 (RB binding protein 8, endonuclease) | 1 | 0.86 (active) | 3.66 | no change | caspase activation |
| RBBP8 (RB binding protein 8, endonuclease) | 2 | 0.7 | 2.52 | no change | no change |
| RBBP8 (RB binding protein 8, endonuclease) | 3 | 0.7 (active) | 3.78 | no change | caspase activation |
| RBBP8 (RB binding protein 8, endonuclease) | 4 | 0.76 | 1.59 | no change | no change |

4 entries from above, set out differently.
Gene,reagent,viability relative to mock,caspase activity relative to mock,viability hit class,caspase hit class
EIF2S1 (eukaryotic translation initiation factor 2 subunit alpha),4,0.38 (active),0.97,reduced viability,no change
TFAP2D (transcription factor AP-2 delta),1,0.71 (active),2.8,no change,caspase activation
TFAP2D (transcription factor AP-2 delta),2,0.7 (active),4.08,no change,caspase activation
TFAP2D (transcription factor AP-2 delta),3,0.79,1.27,no change,no change
